Source: paper PMC10079658
The exact form of at least one protein or probe is not confirmed. No signal at the amounts used counts as a negative. The comparison behind a weaker result is the experiment's own reference, which may not be listed here.

Test system: His-Hsp70 (Heat Shock Protein 70)
Test: fluorescence plate binding assay
Settings: A after primer (nt 19) are 7-phenylbutyl-7-deaza-dA (A*); 25 mM HEPES, 5 mM MgCl2, 300 mM KCl, pH 7.4 (BLI) or 7.5 (SELEX), 24 °C; plate assay washes with 1% BSA, 0.05% Tween 20; aptamers folded 95 °C 5 min then cooled; protein details: His; label: 5'-6-FAM; synthetic backbone

Row | Sequence | binding result
1 | GCAGCAGAGATAGACGCTATCTCTTAGACCTTCTAATTTAACTACTCAATGGCATAGCTGGCAC [HSe-6] | binds more weakly
2 | GCAGCAGAGATAGACGCTAAGACCTCATAGTCCTTCTAATTATACTCCAATGGCATAGCTGGCAC [HSe-9] | binds
3 | GCAGCAGAGATAGACGCTAGGATCTCATAGTTCTTGTAATGATACTCCAATGGCATAGCTGGCAC [HSe-4] | binds more weakly
4 | GCAGCAGAGATAGACGCTAAGGGAAGTAGGAAGAAGGGATGCCCTGCAATGGCATAGCTGGCAC [HSe-3] | binds more weakly
5 | GCAGCAGAGATAGACGCTATTCTCTAGACCTTCTAATTTACATACTCCAATGGCATAGCTGGCAC [HSe-2] | binds
6 | GCAGCAGAGATAGACGCTAATCGATGAGACCTTCTAATTAACTATTCCAATGGCATAGCTGGCAC [HSe-5] | binds more weakly
7 | GCAGCAGAGATAGACGCTAGATCTCCAGTCCTTCTAATTAATACTCCAATGGCATAGCTGGCAC [HSe-7] | binds more weakly
8 | GCAGCAGAGATAGACGCTAGTCCTCATAGGCCTTCTAATTAACTATTCAATGGCATAGCTGGCAC [HSe-8] | binds more weakly
9 | GCAGCAGAGATAGACGCTATTTCTTAGACCTTTCTAATTTAACTACTCAATGGCATAGCTGGCAC [HSe-1] | no binding
